# From the supplement of paper PMC10060354, “Discovery of a small molecule ligand of FRS2 that inhibits invasion and tumor growth” (Cellular Oncology, 2022)
# By UniProt entry, the sequences of proteins in these tests, tags left out. Where a name states a change or a piece, a line headed by the entry shows the natural chain unless it says otherwise.
# UniProt O75976: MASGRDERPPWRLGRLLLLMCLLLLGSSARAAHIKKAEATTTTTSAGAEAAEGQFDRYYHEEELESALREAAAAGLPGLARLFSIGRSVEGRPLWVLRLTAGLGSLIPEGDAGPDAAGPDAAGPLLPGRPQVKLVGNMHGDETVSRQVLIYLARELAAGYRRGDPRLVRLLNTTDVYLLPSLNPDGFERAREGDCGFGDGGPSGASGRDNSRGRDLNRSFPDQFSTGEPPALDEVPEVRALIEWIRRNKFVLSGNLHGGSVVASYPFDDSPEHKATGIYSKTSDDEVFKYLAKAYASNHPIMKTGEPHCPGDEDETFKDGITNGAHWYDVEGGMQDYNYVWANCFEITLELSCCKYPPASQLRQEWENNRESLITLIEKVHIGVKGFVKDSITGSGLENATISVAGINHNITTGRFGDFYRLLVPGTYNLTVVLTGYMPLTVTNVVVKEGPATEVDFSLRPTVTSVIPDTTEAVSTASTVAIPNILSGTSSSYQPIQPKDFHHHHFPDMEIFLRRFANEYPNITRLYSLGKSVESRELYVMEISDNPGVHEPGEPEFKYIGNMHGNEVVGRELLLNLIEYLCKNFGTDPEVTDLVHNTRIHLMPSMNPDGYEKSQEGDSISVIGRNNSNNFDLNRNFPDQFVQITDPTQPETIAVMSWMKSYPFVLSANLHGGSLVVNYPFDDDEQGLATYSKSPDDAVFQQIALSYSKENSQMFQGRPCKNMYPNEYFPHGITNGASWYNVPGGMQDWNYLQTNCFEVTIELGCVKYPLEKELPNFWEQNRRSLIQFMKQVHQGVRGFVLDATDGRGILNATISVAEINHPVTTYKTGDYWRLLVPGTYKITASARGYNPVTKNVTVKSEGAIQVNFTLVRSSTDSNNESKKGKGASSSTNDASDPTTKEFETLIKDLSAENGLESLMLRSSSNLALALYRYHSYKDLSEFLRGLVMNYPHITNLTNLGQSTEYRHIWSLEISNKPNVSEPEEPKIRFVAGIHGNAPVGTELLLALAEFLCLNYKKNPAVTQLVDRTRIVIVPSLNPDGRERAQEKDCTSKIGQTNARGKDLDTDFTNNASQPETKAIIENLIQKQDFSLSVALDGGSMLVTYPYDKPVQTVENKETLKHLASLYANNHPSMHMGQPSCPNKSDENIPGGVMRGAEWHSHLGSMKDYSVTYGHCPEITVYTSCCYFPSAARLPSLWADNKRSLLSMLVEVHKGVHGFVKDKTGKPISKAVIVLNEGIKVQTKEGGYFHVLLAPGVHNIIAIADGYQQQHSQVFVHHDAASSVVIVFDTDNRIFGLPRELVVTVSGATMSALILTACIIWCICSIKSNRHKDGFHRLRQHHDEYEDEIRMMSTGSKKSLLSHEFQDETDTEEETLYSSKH
# UniProt Q9HCE3: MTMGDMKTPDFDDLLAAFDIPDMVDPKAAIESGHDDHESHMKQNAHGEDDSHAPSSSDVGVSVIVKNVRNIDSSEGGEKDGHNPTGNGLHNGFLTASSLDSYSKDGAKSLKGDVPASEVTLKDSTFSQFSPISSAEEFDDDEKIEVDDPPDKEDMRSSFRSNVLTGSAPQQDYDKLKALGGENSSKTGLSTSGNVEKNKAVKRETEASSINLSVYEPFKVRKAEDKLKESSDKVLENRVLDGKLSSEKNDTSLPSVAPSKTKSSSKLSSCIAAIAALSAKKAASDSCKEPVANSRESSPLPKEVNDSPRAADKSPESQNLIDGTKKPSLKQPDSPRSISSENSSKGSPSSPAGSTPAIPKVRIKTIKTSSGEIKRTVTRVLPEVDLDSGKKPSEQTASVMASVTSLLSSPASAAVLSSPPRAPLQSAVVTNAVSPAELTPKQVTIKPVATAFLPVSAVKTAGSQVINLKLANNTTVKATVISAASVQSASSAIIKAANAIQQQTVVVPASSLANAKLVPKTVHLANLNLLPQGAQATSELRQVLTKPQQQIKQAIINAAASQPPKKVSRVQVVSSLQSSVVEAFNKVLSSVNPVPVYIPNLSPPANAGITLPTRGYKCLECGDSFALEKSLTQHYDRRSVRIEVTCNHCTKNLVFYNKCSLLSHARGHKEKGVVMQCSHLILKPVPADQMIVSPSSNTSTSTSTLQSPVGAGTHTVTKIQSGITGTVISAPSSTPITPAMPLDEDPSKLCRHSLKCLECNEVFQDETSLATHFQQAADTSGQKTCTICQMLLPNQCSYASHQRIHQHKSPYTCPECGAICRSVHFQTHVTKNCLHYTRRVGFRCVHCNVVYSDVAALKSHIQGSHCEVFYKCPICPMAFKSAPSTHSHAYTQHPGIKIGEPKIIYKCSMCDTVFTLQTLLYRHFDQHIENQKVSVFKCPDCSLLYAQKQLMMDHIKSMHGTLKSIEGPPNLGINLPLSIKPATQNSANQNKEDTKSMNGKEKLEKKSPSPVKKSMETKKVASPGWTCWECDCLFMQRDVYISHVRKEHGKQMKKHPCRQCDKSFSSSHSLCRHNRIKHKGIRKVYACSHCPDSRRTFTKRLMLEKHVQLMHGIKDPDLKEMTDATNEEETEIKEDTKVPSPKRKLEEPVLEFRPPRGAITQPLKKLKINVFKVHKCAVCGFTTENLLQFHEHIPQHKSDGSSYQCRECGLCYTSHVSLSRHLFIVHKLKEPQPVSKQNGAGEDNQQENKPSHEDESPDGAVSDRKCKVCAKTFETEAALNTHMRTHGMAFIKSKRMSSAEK
# UniProt O75121: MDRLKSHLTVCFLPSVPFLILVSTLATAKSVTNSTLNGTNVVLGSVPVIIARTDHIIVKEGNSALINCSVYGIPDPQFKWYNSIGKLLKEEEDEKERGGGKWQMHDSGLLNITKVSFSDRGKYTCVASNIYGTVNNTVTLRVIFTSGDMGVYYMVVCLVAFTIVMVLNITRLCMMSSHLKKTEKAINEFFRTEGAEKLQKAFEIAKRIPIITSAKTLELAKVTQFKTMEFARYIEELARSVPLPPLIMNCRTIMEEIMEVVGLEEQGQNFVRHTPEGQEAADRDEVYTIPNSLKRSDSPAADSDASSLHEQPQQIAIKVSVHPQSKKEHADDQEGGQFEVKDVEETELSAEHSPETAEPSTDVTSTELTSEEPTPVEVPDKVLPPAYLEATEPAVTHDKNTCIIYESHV
# UniProt Q8TEM1: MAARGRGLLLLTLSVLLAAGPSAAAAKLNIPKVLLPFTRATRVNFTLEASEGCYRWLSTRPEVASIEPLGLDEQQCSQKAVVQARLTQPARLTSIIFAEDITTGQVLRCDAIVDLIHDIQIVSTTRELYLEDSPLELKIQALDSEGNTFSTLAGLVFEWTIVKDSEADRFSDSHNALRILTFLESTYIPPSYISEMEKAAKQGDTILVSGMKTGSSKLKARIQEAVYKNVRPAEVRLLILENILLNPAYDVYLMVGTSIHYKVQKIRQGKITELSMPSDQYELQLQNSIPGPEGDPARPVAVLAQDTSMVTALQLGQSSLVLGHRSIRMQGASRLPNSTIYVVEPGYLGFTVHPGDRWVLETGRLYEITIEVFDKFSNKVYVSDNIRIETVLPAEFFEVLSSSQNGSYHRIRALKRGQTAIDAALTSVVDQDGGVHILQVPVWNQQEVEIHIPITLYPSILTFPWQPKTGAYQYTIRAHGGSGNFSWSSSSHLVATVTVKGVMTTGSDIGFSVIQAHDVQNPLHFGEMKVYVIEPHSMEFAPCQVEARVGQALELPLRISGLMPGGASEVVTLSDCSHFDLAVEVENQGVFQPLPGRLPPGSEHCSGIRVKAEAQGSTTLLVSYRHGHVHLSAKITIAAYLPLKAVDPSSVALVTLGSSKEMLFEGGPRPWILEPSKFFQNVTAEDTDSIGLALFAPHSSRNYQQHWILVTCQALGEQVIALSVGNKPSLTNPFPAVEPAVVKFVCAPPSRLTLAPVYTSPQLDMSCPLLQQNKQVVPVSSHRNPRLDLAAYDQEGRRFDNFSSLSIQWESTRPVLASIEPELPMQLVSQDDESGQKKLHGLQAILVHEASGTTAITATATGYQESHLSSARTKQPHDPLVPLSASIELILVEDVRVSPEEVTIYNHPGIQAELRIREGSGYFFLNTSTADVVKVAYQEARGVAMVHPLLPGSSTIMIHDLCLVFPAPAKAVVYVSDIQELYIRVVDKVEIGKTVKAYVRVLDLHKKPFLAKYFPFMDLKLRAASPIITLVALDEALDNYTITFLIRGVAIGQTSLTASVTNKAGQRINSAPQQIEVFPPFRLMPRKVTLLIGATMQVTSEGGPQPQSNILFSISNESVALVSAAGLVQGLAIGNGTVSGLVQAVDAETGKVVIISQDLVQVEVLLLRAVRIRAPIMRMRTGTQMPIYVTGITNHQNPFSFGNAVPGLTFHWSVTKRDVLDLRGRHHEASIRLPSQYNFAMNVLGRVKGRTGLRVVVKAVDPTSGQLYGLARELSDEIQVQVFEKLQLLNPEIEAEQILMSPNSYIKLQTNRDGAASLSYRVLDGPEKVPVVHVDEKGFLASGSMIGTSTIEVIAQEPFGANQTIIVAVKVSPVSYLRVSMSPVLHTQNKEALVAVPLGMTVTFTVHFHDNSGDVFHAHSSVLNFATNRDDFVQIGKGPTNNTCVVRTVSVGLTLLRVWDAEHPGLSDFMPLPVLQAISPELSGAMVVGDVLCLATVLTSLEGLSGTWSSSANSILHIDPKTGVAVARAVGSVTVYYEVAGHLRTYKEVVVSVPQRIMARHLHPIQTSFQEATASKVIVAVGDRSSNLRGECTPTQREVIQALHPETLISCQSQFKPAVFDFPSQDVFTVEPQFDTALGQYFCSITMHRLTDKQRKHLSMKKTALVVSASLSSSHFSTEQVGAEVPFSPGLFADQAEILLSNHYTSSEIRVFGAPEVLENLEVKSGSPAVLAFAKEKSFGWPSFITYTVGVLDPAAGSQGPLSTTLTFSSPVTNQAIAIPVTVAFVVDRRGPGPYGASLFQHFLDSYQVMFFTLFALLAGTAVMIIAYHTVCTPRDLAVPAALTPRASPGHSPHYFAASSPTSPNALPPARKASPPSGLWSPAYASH
# UniProt P51648: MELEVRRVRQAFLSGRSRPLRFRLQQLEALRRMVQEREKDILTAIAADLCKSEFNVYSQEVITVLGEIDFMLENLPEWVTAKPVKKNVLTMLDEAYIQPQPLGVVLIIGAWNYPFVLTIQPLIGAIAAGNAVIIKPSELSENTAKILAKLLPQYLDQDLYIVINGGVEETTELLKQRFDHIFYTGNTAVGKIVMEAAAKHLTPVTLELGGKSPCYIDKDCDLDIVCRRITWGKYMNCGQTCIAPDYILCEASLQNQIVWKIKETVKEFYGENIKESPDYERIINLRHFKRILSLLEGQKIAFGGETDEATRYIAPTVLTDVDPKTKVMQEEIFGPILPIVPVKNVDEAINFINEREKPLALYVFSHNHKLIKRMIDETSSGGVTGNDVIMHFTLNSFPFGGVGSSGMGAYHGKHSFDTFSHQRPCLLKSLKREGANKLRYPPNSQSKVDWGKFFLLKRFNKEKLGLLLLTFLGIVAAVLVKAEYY
# UniProt Q06210: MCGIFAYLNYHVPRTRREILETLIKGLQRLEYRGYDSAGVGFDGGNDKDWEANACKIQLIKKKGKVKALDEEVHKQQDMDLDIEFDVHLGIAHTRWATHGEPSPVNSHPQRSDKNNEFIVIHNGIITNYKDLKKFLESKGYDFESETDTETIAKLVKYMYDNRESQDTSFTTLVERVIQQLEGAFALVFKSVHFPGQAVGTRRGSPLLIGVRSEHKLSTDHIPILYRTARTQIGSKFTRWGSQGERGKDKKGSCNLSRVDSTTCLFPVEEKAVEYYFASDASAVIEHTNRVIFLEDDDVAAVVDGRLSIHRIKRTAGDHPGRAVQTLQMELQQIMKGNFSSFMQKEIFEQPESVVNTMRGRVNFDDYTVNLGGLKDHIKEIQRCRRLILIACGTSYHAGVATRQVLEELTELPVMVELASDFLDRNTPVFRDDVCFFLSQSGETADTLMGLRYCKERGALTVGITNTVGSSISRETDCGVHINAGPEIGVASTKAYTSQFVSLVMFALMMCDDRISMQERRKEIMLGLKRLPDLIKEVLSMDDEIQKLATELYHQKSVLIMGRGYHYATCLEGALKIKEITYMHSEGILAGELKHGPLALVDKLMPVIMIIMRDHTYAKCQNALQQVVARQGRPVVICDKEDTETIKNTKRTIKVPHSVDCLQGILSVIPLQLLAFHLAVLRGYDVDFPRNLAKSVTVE
# UniProt Q00534, whole entry: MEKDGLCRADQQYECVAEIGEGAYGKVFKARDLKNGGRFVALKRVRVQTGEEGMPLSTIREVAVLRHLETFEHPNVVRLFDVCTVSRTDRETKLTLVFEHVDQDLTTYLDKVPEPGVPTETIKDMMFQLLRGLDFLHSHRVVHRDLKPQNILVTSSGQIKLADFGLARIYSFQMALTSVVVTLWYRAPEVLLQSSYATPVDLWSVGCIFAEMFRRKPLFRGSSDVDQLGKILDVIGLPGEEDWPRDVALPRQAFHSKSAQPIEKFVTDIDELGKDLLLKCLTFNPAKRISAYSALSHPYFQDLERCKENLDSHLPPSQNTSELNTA
# UniProt Q9Y5L4: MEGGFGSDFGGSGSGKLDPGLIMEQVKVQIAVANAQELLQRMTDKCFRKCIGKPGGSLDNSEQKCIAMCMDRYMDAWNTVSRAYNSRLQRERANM
# Compound: [O-][N+](C(C1=C(C(O)=C2)NC(C(C=C3)=CC=C3Cl)C4C1C=CC4)=C2Cl)=O
# Experiment: melting temperature shift (compound 7 minus DMSO); higher = compound stabilises the protein
# Conditions: 10 µM
# Protocol: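 Thermal proteome profiling (TMT mass spectrometry) in intact DAOY medulloblastoma cells or DAOY lysates treated with 10 µM compound 7 or DMSO, heated at 10 temperatures from 40.5 to 73.8 °C for 3 min. Melting curves were fitted with the Bioconductor TPP package, and the melting point difference between compound and vehicle is reported per protein (single curve per condition).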
# [1] = system: DAOY cell lysate, treatment time: 20 min, 4 °C
# [2] = system: intact DAOY cells, treatment time: 90 min, 37 °C
target,measurement,setting,value
STAT6 (UniProt P42226),melting temperature shift,[1],-0.346 °C
same,melting temperature shift,[2],-0.511 °C
UniProt Q9HCJ6,melting temperature shift,[1],-0.967 °C
UniProt Q8N1I0,melting temperature shift,[1],-1.2 °C
PGRMC1 (UniProt O00264),melting temperature shift,[1],1.95 °C
UniProt O43716,melting temperature shift,[1],1.05 °C
UniProt P49840,melting temperature shift,[1],-0.439 °C
same,melting temperature shift,[2],-0.367 °C
SDF2L1 (UniProt Q9HCN8),melting temperature shift,[2],-0.59 °C
UniProt Q16363,melting temperature shift,[1],0.411 °C
same,melting temperature shift,[2],-1.09 °C
SQRDL (UniProt Q9Y6N5),melting temperature shift,[1],5.05 °C
same,melting temperature shift,[2],1.09 °C
UniProt P26378,melting temperature shift,[2],-1.34 °C
PDIA6 (UniProt Q15084),melting temperature shift,[1],0.78 °C
same,melting temperature shift,[2],0.109 °C
COG8 (UniProt Q96MW5),melting temperature shift,[1],-0.00195 °C
same,melting temperature shift,[2],-0.0197 °C
NCLN (UniProt Q969V3),melting temperature shift,[1],1.01 °C
same,melting temperature shift,[2],-0.535 °C
UniProt Q96M86,melting temperature shift,[2],0.367 °C
UniProt P17612,melting temperature shift,[1],-0.143 °C
same,melting temperature shift,[2],-0.056 °C
UniProt Q9NZQ7,melting temperature shift,[1],2.95 °C
same,melting temperature shift,[2],-0.325 °C
WDR44 (UniProt Q5JSH3),melting temperature shift,[1],-1.06 °C
same,melting temperature shift,[2],-0.132 °C
COL5A2 (UniProt P05997),melting temperature shift,[1],1.55 °C
VDAC3 (UniProt Q9Y277),melting temperature shift,[1],2.57 °C
same,melting temperature shift,[2],-0.539 °C
CPD (UniProt O75976),melting temperature shift,[1],0.489 °C
same,melting temperature shift,[2],1.97 °C
DDX39B (UniProt Q13838),melting temperature shift,[1],0.19 °C
same,melting temperature shift,[2],0.165 °C
UniProt Q9Y584,melting temperature shift,[1],1.36 °C
TES (UniProt Q9UGI8),melting temperature shift,[1],0.502 °C
UniProt P10915,melting temperature shift,[1],0.403 °C
SLC38A2 (UniProt Q96QD8),melting temperature shift,[1],-0.142 °C
same,melting temperature shift,[2],1.93 °C
RAB3GAP2 (UniProt Q9H2M9),melting temperature shift,[1],-0.459 °C
same,melting temperature shift,[2],-0.401 °C
UniProt Q9ULC5,melting temperature shift,[2],-0.785 °C
ATP5D (UniProt P30049),melting temperature shift,[1],2.46 °C
same,melting temperature shift,[2],-3.09 °C
UniProt Q9HCE3,melting temperature shift,[1],0.978 °C
MAGED2 (UniProt Q9UNF1),melting temperature shift,[1],-1.05 °C
same,melting temperature shift,[2],0.233 °C
UniProt O60725,melting temperature shift,[1],0.149 °C
COX15 (UniProt Q7KZN9),melting temperature shift,[1],3.09 °C
same,melting temperature shift,[2],0.123 °C
LPP (UniProt Q93052),melting temperature shift,[1],-0.116 °C
same,melting temperature shift,[2],0.154 °C
GET4 (UniProt Q7L5D6),melting temperature shift,[1],-1.73 °C
same,melting temperature shift,[2],0.425 °C
UniProt Q9BXY0,melting temperature shift,[1],0.563 °C
same,melting temperature shift,[2],-0.23 °C
CKAP2 (UniProt Q8WWK9),melting temperature shift,[1],0.0873 °C
same,melting temperature shift,[2],0.887 °C
DAP3 (UniProt P51398),melting temperature shift,[1],1.03 °C
same,melting temperature shift,[2],-0.77 °C
TBC1D23 (UniProt Q9NUY8),melting temperature shift,[1],0.875 °C
same,melting temperature shift,[2],-0.951 °C
UniProt Q86VD1,melting temperature shift,[2],-2.01 °C
UniProt Q9NZI7,melting temperature shift,[1],0.649 °C
RIOK3 (UniProt O14730),melting temperature shift,[2],-1.35 °C
UniProt O75121,melting temperature shift,[2],1.19 °C
UniProt A8K0Z3,melting temperature shift,[2],0.47 °C
UniProt P02768,melting temperature shift,[1],-0.27 °C
UniProt P39060,melting temperature shift,[1],-0.312 °C
same,melting temperature shift,[2],-0.98 °C
UniProt P32247,melting temperature shift,[2],-2.31 °C
CLSTN1 (UniProt O94985),melting temperature shift,[1],0.973 °C
IGF2BP3 (UniProt O00425),melting temperature shift,[1],-0.11 °C
same,melting temperature shift,[2],-0.0499 °C
RNASEH2A (UniProt O75792),melting temperature shift,[1],-0.628 °C
same,melting temperature shift,[2],0.937 °C
NLN (UniProt Q9BYT8),melting temperature shift,[1],-0.112 °C
same,melting temperature shift,[2],0.561 °C
UniProt Q86SK9,melting temperature shift,[1],1.06 °C
UniProt O43294,melting temperature shift,[1],-0.942 °C
NUP210 (UniProt Q8TEM1),melting temperature shift,[1],0.947 °C
same,melting temperature shift,[2],-0.00416 °C
UniProt P05976,melting temperature shift,[2],-0.0458 °C
RPIA (UniProt P49247),melting temperature shift,[1],0.922 °C
ARCN1 (UniProt P48444),melting temperature shift,[1],-0.312 °C
same,melting temperature shift,[2],0.171 °C
UniProt Q8WV24,melting temperature shift,[1],-0.585 °C
same,melting temperature shift,[2],0.209 °C
PAFAH1B3 (UniProt Q15102),melting temperature shift,[1],-0.534 °C
same,melting temperature shift,[2],0.0765 °C
NDUFAF3 (UniProt Q9BU61),melting temperature shift,[1],1.29 °C
same,melting temperature shift,[2],-0.0637 °C
TIMM44 (UniProt O43615),melting temperature shift,[1],0.714 °C
same,melting temperature shift,[2],0.042 °C
PGM2 (UniProt Q96G03),melting temperature shift,[1],-0.425 °C
same,melting temperature shift,[2],-0.227 °C
PIP4K2C (UniProt Q8TBX8),melting temperature shift,[1],-0.258 °C
same,melting temperature shift,[2],-0.791 °C
PRPS1 (UniProt P60891),melting temperature shift,[1],-1.49 °C
same,melting temperature shift,[2],-0.199 °C
FLII (UniProt Q13045),melting temperature shift,[1],-0.553 °C
same,melting temperature shift,[2],-0.806 °C
VTA1 (UniProt Q9NP79),melting temperature shift,[1],-0.538 °C
same,melting temperature shift,[2],0.0421 °C
ALDH3A2 (UniProt P51648),melting temperature shift,[1],0.637 °C
same,melting temperature shift,[2],2.21 °C
UniProt Q9ULJ3,melting temperature shift,[1],2.2 °C
AMMECR1 (UniProt Q9Y4X0),melting temperature shift,[2],-0.421 °C
NCOR1 (UniProt O75376),melting temperature shift,[1],-1.23 °C
same,melting temperature shift,[2],1.54 °C
LIG3 (UniProt P49916),melting temperature shift,[1],-0.676 °C
same,melting temperature shift,[2],-0.215 °C
TMEM205 (UniProt Q6UW68),melting temperature shift,[1],1.2 °C
same,melting temperature shift,[2],3.07 °C
UniProt P28370,melting temperature shift,[1],0.921 °C
same,melting temperature shift,[2],0.257 °C
GFPT1 (UniProt Q06210),melting temperature shift,[1],-0.548 °C
same,melting temperature shift,[2],0.411 °C
SEC23A (UniProt Q15436),melting temperature shift,[1],-0.325 °C
same,melting temperature shift,[2],0.199 °C
BAIAP2L1 (UniProt Q9UHR4),melting temperature shift,[1],-0.557 °C
same,melting temperature shift,[2],-0.587 °C
ECI2 (UniProt O75521),melting temperature shift,[1],0.858 °C
same,melting temperature shift,[2],-1.8 °C
UEVLD (UniProt Q8IX04),melting temperature shift,[1],-0.132 °C
same,melting temperature shift,[2],-0.398 °C
VKORC1L1 (UniProt Q8N0U8),melting temperature shift,[1],5.46 °C
ERGIC1 (UniProt Q969X5),melting temperature shift,[1],1.11 °C
same,melting temperature shift,[2],-0.781 °C
SMC1A (UniProt Q14683),melting temperature shift,[1],0.494 °C
same,melting temperature shift,[2],-0.643 °C
NELFB (UniProt Q8WX92),melting temperature shift,[1],-0.0813 °C
same,melting temperature shift,[2],-0.896 °C
UniProt Q9UM47,melting temperature shift,[2],1.74 °C
UCHL5 (UniProt Q9Y5K5),melting temperature shift,[1],-0.585 °C
same,melting temperature shift,[2],0.0429 °C
RPS15A (UniProt P62244),melting temperature shift,[1],-0.707 °C
same,melting temperature shift,[2],-0.803 °C
UniProt P20648,melting temperature shift,[2],-0.865 °C
NDUFB5 (UniProt O43674),melting temperature shift,[1],1.26 °C
same,melting temperature shift,[2],-0.624 °C
APMAP (UniProt Q9HDC9),melting temperature shift,[1],1.35 °C
same,melting temperature shift,[2],0.573 °C
HEBP2 (UniProt Q9Y5Z4),melting temperature shift,[1],-1.27 °C
same,melting temperature shift,[2],0.336 °C
ECHS1 (UniProt P30084),melting temperature shift,[1],0.189 °C
same,melting temperature shift,[2],-0.713 °C
SKIV2L2 (UniProt P42285),melting temperature shift,[1],-0.0375 °C
same,melting temperature shift,[2],-0.284 °C
NAA30 (UniProt Q147X3),melting temperature shift,[1],0.281 °C
same,melting temperature shift,[2],-1.71 °C
GLYR1 (UniProt Q49A26),melting temperature shift,[1],0.57 °C
same,melting temperature shift,[2],-0.568 °C
NDFIP1 (UniProt Q9BT67),melting temperature shift,[2],3.46 °C
DDX31 (UniProt Q9H8H2),melting temperature shift,[1],1.36 °C
EPHA2 (UniProt P29317),melting temperature shift,[1],1.91 °C
same,melting temperature shift,[2],0.0953 °C
C1GALT1 (UniProt Q9NS00),melting temperature shift,[1],0.175 °C
UniProt Q8N257,melting temperature shift,[1],3.17 °C
WDR1 (UniProt O75083),melting temperature shift,[1],-0.225 °C
same,melting temperature shift,[2],1.17 °C
CDK6 (UniProt Q00534),melting temperature shift,[1],-1.1 °C
same,melting temperature shift,[2],0.527 °C
SMARCD2 (UniProt Q92925),melting temperature shift,[1],-2.98 °C
TIMM13 (UniProt Q9Y5L4),melting temperature shift,[1],-0.744 °C
QRSL1 (UniProt Q9H0R6),melting temperature shift,[1],0.013 °C
same,melting temperature shift,[2],-0.863 °C
BRAT1 (UniProt Q6PJG6),melting temperature shift,[1],-1.18 °C
same,melting temperature shift,[2],1.55 °C
SPECC1L (UniProt Q69YQ0),melting temperature shift,[1],0.603 °C
same,melting temperature shift,[2],0.979 °C
MRS2 (UniProt Q9HD23),melting temperature shift,[1],1.2 °C
same,melting temperature shift,[2],-2.17 °C
HYI (UniProt Q5T013),melting temperature shift,[1],-0.862 °C
same,melting temperature shift,[2],3.06 °C
HEXIM1 (UniProt O94992),melting temperature shift,[1],0.15 °C
RPS23 (UniProt P62266),melting temperature shift,[1],0.188 °C
same,melting temperature shift,[2],-0.651 °C
IMPDH2 (UniProt P12268),melting temperature shift,[1],-1.01 °C
same,melting temperature shift,[2],-1.85 °C
HSPB1 (UniProt P04792),melting temperature shift,[1],-0.465 °C
same,melting temperature shift,[2],0.855 °C
TNFAIP2 (UniProt Q03169),melting temperature shift,[1],-0.209 °C
P0DPH8 (UniProt P0DPH7),melting temperature shift,[1],0.335 °C
same,melting temperature shift,[2],-0.765 °C
ARIH1 (UniProt Q9Y4X5),melting temperature shift,[1],-0.0318 °C
same,melting temperature shift,[2],1.44 °C
GMDS (UniProt O60547),melting temperature shift,[1],-0.343 °C
same,melting temperature shift,[2],-1.13 °C
PRUNE (UniProt Q86TP1),melting temperature shift,[1],0.315 °C
same,melting temperature shift,[2],0.838 °C

# Nothing new here: an excerpt of the list.
target,measurement,setting,value
UniProt O43716,melting temperature shift,[1],1.05 °C
UniProt P49840,melting temperature shift,[1],-0.439 °C
same,melting temperature shift,[2],-0.367 °C
SDF2L1 (UniProt Q9HCN8),melting temperature shift,[2],-0.59 °C

# An excerpt of these results, bar-delimited.
target | measurement | setting | value
STAT6 (UniProt P42226) | melting temperature shift | [2] | -0.511 °C
PDIA6 (UniProt Q15084) | melting temperature shift | [2] | 0.109 °C

# Part of the list above, tab-delimited.
target	measurement	setting	value
SPECC1L (UniProt Q69YQ0)	melting temperature shift	[2]	0.979 °C
MRS2 (UniProt Q9HD23)	melting temperature shift	[1]	1.2 °C
same	melting temperature shift	[2]	-2.17 °C

# Many values rest on one well or one pass, so single values are uncertain.
